Assay results from the supplement of paper PMC7646827.
Repeats are few or missing, and single values can be far off.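 All cells are established human bladder cancer lines, one of them grown from a patient-derived xenograft. Viability was read by a luminescent ATP assay as percent inhibition versus vehicle over a seven-point dilution series; the paper calls scores above 59 very active, 30–59 active, 21–29 semi-active, 9–20 low active and below 9 inactive.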

Legend:
Assay in all cases: drug sensitivity score DSS3 (score 0-100); higher = more sensitive; extreme values may be limits of the assay
Conditions in all cases: culture: 3D, ultra-low attachment; treatment time: 5 days
5637 = test system: 5637
BC8149 = test system: BC8149
J82 = test system: J82
SCaBER = test system: SCaBER
SW780 = test system: SW780
T-24 = test system: T-24
TCCSUP = test system: TCCSUP
UM-UC-12 = test system: UM-UC-12
UM-UC-14 = test system: UM-UC-14
UM-UC-15 = test system: UM-UC-15
UM-UC-17 = test system: UM-UC-17
UM-UC-18 = test system: UM-UC-18
UM-UC-1 = test system: UM-UC-1
UM-UC-3 = test system: UM-UC-3
UM-UC-5 = test system: UM-UC-5
UM-UC-6 = test system: UM-UC-6
UM-UC-9 = test system: UM-UC-9

Structure (SMILES)	drug sensitivity score DSS3 5637	drug sensitivity score DSS3 (BC8149)	drug sensitivity score DSS3 (J82)	drug sensitivity score DSS3 (SCaBER)	drug sensitivity score DSS3 (SW780)	drug sensitivity score DSS3 (T-24)	drug sensitivity score DSS3 (TCCSUP)	drug sensitivity score DSS3 (UM-UC-12)	drug sensitivity score DSS3 (UM-UC-14)	drug sensitivity score DSS3 (UM-UC-15)	drug sensitivity score DSS3 (UM-UC-17)	drug sensitivity score DSS3 (UM-UC-18)	drug sensitivity score DSS3 (UM-UC-1)	drug sensitivity score DSS3 (UM-UC-3)	drug sensitivity score DSS3 (UM-UC-5)	drug sensitivity score DSS3 (UM-UC-6)	drug sensitivity score DSS3 (UM-UC-9)
CN(C)NC(=O)CCC(=O)O [Daminozide] (max dose 10000 nM)	0	0	0	0	0	0.334	0	0	0.888	0	0	0	0.0873	0	0	0.177	0
CC(C)[C@](O)(c1ccc2cc(OC(F)F)c(OC(F)F)cc2c1)c1c[nH]nn1 [VT-464] (max dose 10000 nM)	0	17.7	0	0	0	0	0	0	0	6.32	0	0	0	3.06	0	0.12	0
Cc1cc2c(C(C)C)c(O)c(O)c(C=O)c2c(O)c1-c1c(C)cc2c(C(C)C)c(O)c(O)c(C=O)c2c1O [Gossypol] (max dose 10000 nM)	6.65	1.42	0	5.28	0	0	11	0	0.298	0	2.82	1.67	1.28	0.0228	0	0	0
CC(=O)O[C@@]12CO[C@@H]1C[C@H](O)[C@@]1(C)C(=O)[C@H](O)C3=C(C)[C@@H](OC(=O)[C@H](O)[C@@H](NC(=O)OC(C)(C)C)c4ccccc4)C[C@@](O)([C@@H](OC(=O)c4ccccc4)[C@H]21)C3(C)C [Docetaxel] (max dose 10000 nM)	80.5	50.5	12.3	34.7	62.6	0	82.4	49.4	64.1	0	78.9	42.6	55.9	28.4	0	66.4	19.9
CN(C)CCOc1ccc(-c2nc(-c3ccncc3)c(-c3ccc4c(c3)CC/C4=N\O)[nH]2)cc1 (max dose 10000 nM)	1.05	0	0	0.35	0	0	5.41	0	0	0	0	0	1.94	0.269	0.91	0.078	0
CCC(=O)Nc1cccc(Oc2nc(Nc3ccc(N4CCN(C)CC4)cc3OC)ncc2Cl)c1 [WZ4003] (max dose 10000 nM)	0	2.35	0	1.56	0	0	2.18	3.91	0	0	0	0.729	0	0	0	0	0
Cn1ncnc1[C@H]1c2n[nH]c(=O)c3cc(F)cc(c23)N[C@@H]1c1ccc(F)cc1 [talazoparib] (max dose 10000 nM)	35	32.3	4.29	0	0	0	59.4	13.8	0	0	14.9	15.6	16.2	5.5	0.681	23.7	0.0754
C=CCn1c(=O)c2cnc(Nc3ccc(N4CCN(C)CC4)cc3)nc2n1-c1cccc(C(C)(C)O)n1 [AZD1775, MK-1775] (max dose 10000 nM)	23.7	22	1.53	4.44	1.31	0	33.3	4.67	6.27	2.65	9.32	13.6	12.2	1.64	1.04	23	8.35
COc1cccc(Nc2c(C(N)=O)cnc3c(C)cc(S(=O)(=O)c4cccc(C(=O)N(C)C)c4)cc23)c1 (max dose 10000 nM)	0	0	0	0	0	0	1.31	0	0	0	0	0.46	0	0	0	0.77	0
CN(C)CC[C@H](CSc1ccccc1)Nc1ccc(S(=O)(=O)NC(=O)c2ccc(N3CCN(Cc4ccccc4-c4ccc(Cl)cc4)CC3)cc2)cc1[N+](=O)[O-] [ABT-737] (max dose 10000 nM)	33.3	24.6	1.93	12.1	2.42	1.45	19.9	13.4	9.01	0	2.34	5.97	5.58	7.3	8.37	4.35	1.65
CC(=O)O/N=C1/C(c2c(O)[nH]c3cc(Br)ccc23)=Nc2ccccc21 [BIO-acetoxime] (max dose 10000 nM)	0	0	0	0	0	0.0681	0	0.101	0	14.1	0	0	0.096	0	0	0	0
Cc1nn(-c2ccccc2)c(C)c1C=NN1CCN(Cc2ccccc2)CC1 [SANT-1] (max dose 10000 nM)	0.122	1.49	0	0.119	0.161	0	1.4	0	0	19	5.33	0.109	0	0	0	0.0322	0

Copied from the list:
Value for Cc1nn(-c2ccccc2)c(C)c1C=NN1CCN(Cc2ccccc2)CC1 [SANT-1] (max dose 10000 nM) under drug sensitivity score DSS3 (SCaBER): 0.119
Value for CN(C)NC(=O)CCC(=O)O [Daminozide] (max dose 10000 nM) under drug sensitivity score DSS3 (UM-UC-18): 0
